These are yes or no findings as the source states them, for the method shown. In cells and extracts the contact can be indirect. Here binding means that the protein was enriched with, or labelled near, the bait; the list need not be complete. Where a sequence is shown, tags or fusion partners need not be part of it.
Molecular target: T1, GP73-c-FLAG fusion protein (UniProt Q8NBJ4)
T1 sequence: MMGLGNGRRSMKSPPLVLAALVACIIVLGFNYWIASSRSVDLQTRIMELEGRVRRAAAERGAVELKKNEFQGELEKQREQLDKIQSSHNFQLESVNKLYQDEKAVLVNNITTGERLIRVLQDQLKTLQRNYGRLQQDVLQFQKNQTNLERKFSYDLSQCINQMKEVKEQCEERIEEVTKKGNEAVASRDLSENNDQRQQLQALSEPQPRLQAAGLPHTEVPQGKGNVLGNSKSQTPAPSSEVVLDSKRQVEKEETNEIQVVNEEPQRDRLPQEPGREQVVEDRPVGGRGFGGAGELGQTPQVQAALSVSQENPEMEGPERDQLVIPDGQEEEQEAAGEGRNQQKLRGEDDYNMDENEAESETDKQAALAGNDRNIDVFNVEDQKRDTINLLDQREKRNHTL
Experiment: affinity purification with mass spectrometry; GP73-c-FLAG expressed in MHCC-97H cells, purified on Anti-FLAG M2 Affinity Gel, SDS-PAGE, bands digested, Triple-TOF 5600 LC-MS/MS, control pCMV3-c-FLAG

Sequences of proteins named here, by UniProt entry; tags and fusion partners are left off.
UniProt P62136: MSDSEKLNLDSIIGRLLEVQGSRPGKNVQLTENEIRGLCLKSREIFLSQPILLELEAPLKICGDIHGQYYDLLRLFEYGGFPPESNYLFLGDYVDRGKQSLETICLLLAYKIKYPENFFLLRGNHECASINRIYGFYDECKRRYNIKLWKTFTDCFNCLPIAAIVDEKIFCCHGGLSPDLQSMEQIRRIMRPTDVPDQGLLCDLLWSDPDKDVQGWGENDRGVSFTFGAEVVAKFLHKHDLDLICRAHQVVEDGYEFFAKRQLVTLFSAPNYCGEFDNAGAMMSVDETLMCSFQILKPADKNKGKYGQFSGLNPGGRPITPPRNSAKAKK
UniProt P08670: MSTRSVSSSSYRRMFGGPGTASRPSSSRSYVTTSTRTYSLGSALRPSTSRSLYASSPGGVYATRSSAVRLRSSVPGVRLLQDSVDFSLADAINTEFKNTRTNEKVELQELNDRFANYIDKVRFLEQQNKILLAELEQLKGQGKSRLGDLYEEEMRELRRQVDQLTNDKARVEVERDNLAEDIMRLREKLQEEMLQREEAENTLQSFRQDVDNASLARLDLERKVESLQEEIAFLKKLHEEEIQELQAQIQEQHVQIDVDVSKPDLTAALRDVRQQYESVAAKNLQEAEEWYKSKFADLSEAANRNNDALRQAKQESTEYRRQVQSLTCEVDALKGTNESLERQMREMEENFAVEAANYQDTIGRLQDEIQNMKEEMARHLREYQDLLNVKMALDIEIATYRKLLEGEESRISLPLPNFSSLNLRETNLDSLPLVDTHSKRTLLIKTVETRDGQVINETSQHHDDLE

| binding | Substance |
| --- | --- |
| binds | Serine/Threonine-protein phosphatase PP1-alpha (from UniProt P62136 1-330) (enzyme) |
| binds | vimentin (from UniProt P08670 1-466) |
